From PubChem BioAssay AID504444 (National Center for Advancing Translational Sciences (NCATS), 2011)
The campaign covered roughly 360,000 compounds. About 7,500 (2.1%) were called active. This list was built around the results that the source calls inconclusive (neither active nor inactive); the mix of calls is not that of the screen. Calls follow the shape of the dose curve; as a rule, active = well fitted inhibition curve with a large enough effect; inconclusive = small, poorly fitted or top-dose-only effect, or effect the other way; inactive = flat fitted curve, though single readings scatter. A potency beside an inconclusive call is a rough fit, not a confirmed value.

Test: Nrf2 qHTS screen for inhibitors; also: nearly all actives have a fitted effect of over 60% in size
Settings: A549 ARE-Fluc reporter, luciferase luminescence, 18-24 h; series mostly up to 46 µM
Summary of the method: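 Quantitative HTS in A549 cells stably bearing an antioxidant response element-firefly luciferase construct. Inhibition of Nrf2-driven transcription was scored by luminescence after 18-24 h of compound exposure at 37 °C.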
Potency is read from the fitted curve at half-maximal effect.

Structure (SMILES) | Potency
COC(=O)c1cc(NS(=O)(=O)c2cccs2)cc(NS(=O)(=O)c2cccs2)c1 | inactive
CN(Cc1ccccc1F)C(=O)COc1ccc(C(=O)c2ccccc2)cc1 | inactive
CCC(C)n1c(=N)c(S(=O)(=O)c2ccccc2)cc2c(=O)n3ccccc3nc21 (stereo not drawn) | inactive
NNc1nc2c(-c3ccc(F)cc3)nnn2c2ccccc12 | inconclusive: 9.2 µM [activator, partial curve]
CCCOc1ccc(C(=O)NNC(=S)NC(=O)CC)cc1 | active: 4.61 µM
CC(=O)c1ccc(Nc2ccc(-c3ccccc3C)nn2)cc1 | inconclusive: 2.31 µM [activator, full curve]
COc1ccc(C2=C(N3CCN(c4cc(Cl)ccc4C)CC3)c3ccccc3C2=O)cc1 | inconclusive: 1.03 µM [activator, partial curve, poor fit]
COc1ccc(CCNC(=O)Cn2c(-c3cccs3)cc3cc(F)ccc32)cc1OC | inactive
Cc1cc(S(=O)(=O)NCc2ccccc2)ccc1OCC(=O)Nc1cccc([N+](=O)[O-])c1 | inconclusive: 20.6 µM [falling, single point]
COc1cc(OC)c2c(C)cc(=O)oc2c1C(CCN1CCCC(C)C1)c1ccc(N(C)C)cc1 (stereo not drawn) | inactive
O=C(c1coc2ccccc2c1=O)N1CCN(c2cccc(C(F)(F)F)c2)CC1 | inconclusive: 23.1 µM [falling, partial curve, poor fit]
CC(=O)[C@@H]1[C@@H]2C(=O)N(Cc3ccccc3)C(=O)[C@@H]2C2c3ccccc3C=CN21 (stereo partly drawn) | inactive
COc1ccc(NC(=O)c2oc3ccccc3c2NC(=O)c2cc(OC)c(OC)c(OC)c2)cc1 | inconclusive: 8.2 µM [falling, partial curve, poor fit]
O=C(NCc1ccccc1Cl)C1CCC(=O)N(C2CC2)C1 (stereo not drawn) | inconclusive: 29.1 µM [activator, single point]
CCN1C(=O)[C@H]2[C@@H](c3ccc(SC4CCCCC4)c(OC)c3)N[C@@](Cc3ccccc3)(C(=O)OC)[C@H]2C1=O | inconclusive: 1.03 µM [falling, full curve, poor fit]
Cc1ccccc1CN(C)C(=O)c1ccc2ccccc2n1 | inactive
Cc1cccc(Oc2nc3c(c(=O)n(C)c(=O)n3C)n2C)c1C | inactive
Cc1cc(C(C)(C)C)cc(C)c1CCNC(=O)c1ccc[n+]([O-])c1 | inconclusive: 20.6 µM [activator, single point]
CCOC(=O)N1CCN(C(=O)c2cnn(-c3cccc(F)c3)c2-n2cccc2)CC1 | inactive
CCc1ccccc1NC(=O)C(CCSC)NS(=O)(=O)c1ccc2c(c1)oc(=O)n2C (stereo not drawn) | inconclusive: 8.2 µM [falling, partial curve, poor fit]
N#Cc1c(-c2ccccc2)cc(-c2ccccc2)nc1SCC(=O)Nc1ccc(Cl)cc1 | inactive
CCCCC(CC)CNC(=O)CCS(=O)(=O)c1cccc2nsnc12 (stereo not drawn) | inactive

Reformatted: results already given.
Cc1ccccc1CN(C)C(=O)c1ccc2ccccc2n1
  Potency: inactive
CCc1ccccc1NC(=O)C(CCSC)NS(=O)(=O)c1ccc2c(c1)oc(=O)n2C (stereo not drawn)
  Potency: inconclusive: 8.2 µM [falling, partial curve, poor fit]

The list goes on:

Structure (SMILES) | Potency
CN(C)c1ccc(C=C(c2nnnn2-c2ccccc2)c2nnnn2-c2ccccc2)cc1 | inactive
CCOC(=O)c1cc2c(ccn2C)n1Cc1cc(C)ccc1C | inactive
CNc1oc(Cc2cccc3ccccc23)nc1C#N | inconclusive: 1.46 µM [falling, partial curve, poor fit]
CCCCCCC(NC(=O)Cc1ccc2ccccc2c1)C(=O)O (stereo not drawn) | inconclusive: 0.0326 µM [falling, full curve, poor fit]
Cc1cc(N2CCN(c3ccccc3)CC2)nc(-c2ccccc2)n1 | inconclusive: 20.6 µM [falling, partial curve, poor fit]
COc1cccc(-n2nnc3c(=O)n(CC(=O)NCC4CCCO4)cnc32)c1 (stereo not drawn) | inconclusive: 7.31 µM [falling, partial curve, poor fit]
Cc1nc2c(C(=O)NCc3ccc4c(c3)OCO4)c[nH]n2c(=O)c1Cc1ccccc1F | inconclusive: 32.6 µM [falling, single point]
COc1ccc2c(C)c(C(=O)N3CCN(Cc4ccccc4)CC3)oc2c1 | inconclusive: 29.1 µM [falling, single point]
O=C1N=C2SCCN2/C1=C\c1c(Cl)cccc1Cl | inconclusive: 20.6 µM [falling, partial curve, poor fit]
CN1CCCN(C(=O)CNC(=O)c2ccc(Cl)cc2Cl)CC1 | inconclusive: 29.1 µM [activator, partial curve, poor fit]
Cc1cc(C)c(OCC(=O)Nc2cccc(-c3nc4ncccc4o3)c2)c(Br)c1 | inconclusive: 16.4 µM [falling, single point]
O=C(NC(=S)NCc1cccnc1)c1cc(Br)ccc1Cl | inconclusive: 23.1 µM [falling, partial curve, poor fit]
NNc1nc(N)c2c(n1)-c1ccccc1CC21CCCC1 | inconclusive: 18.4 µM [activator, single point]
CN(CC(=O)Nc1ccc(S(=O)(=O)N2CCCC2)cc1)CC(=O)Nc1ccc(F)c(F)c1F | inconclusive: 32.6 µM [falling, single point]
CCn1c(COc2ccccc2C)nnc1SCC(=O)N1CCN(c2ccccc2)CC1 | inconclusive: 20.6 µM [falling, single point]
CCOC(=O)N1CCN(C(=O)c2ccc3c(=O)n(Cc4ccc(Cl)cc4)c(=S)[nH]c3c2)CC1 | inconclusive: 18.4 µM [falling, partial curve]
CC1CCN(S(=O)(=O)c2ccc3nc(N4CCN(c5ccccc5)CC4)ccc3c2)CC1 | inconclusive: 25.9 µM [activator, single point]
O=C(/C(=C/O)N=Nc1ccccc1Cl)c1ccccc1 | inconclusive: 6.51 µM [activator, full curve, poor fit]
NC(=O)c1cc2c3ccccc3ccn2c1-c1ccccc1 | inactive
N#C/C(=C\c1ccc[nH]1)C(=O)NC1CC1 | inconclusive: 0.0651 µM [falling, partial curve, poor fit]
CCn1c(C)nc2cc(C(=O)NNC(=O)c3ccc(C)cc3)ccc21 | inconclusive: 3.66 µM [activator, full curve]
